Measured values from patent EP1321467A2, “High affinity inhibitors for target validation and uses thereof” (Princeton University, priority 1999, dated 2000).
Results are given in words; binding and its absence hold for the method and conditions named. Some binding calls cover weakened binding; strength is not graded here. Sequences can lack the tags named with a protein.

By UniProt entry, the sequences of proteins in these tests, tags left out. Where a name states a change or a piece, a line headed by the entry shows the natural chain unless it says otherwise. Chains listed by the source or under a name are the forms on record and can include a tag or linker.
UniProt P00546: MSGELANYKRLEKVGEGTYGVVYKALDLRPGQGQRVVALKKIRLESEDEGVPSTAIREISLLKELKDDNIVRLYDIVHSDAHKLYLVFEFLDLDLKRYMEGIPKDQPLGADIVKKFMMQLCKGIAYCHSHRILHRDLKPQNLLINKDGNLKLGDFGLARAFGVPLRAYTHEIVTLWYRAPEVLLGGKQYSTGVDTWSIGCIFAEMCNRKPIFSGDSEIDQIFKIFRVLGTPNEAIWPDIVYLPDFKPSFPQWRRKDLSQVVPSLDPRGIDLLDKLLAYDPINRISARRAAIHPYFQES
Cdc28-as1-His6 (P00546, form named): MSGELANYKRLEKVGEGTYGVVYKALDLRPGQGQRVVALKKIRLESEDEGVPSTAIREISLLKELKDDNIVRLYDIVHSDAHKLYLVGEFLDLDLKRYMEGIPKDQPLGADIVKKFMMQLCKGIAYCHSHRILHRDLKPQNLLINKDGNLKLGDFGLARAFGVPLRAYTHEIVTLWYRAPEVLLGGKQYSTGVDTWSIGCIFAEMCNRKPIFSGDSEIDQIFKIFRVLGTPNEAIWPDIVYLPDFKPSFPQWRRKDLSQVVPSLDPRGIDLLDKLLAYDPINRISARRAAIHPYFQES

Biological target: T1, MBP-Clb2 (Saccharomyces cerevisiae) (UniProt P24869)
T1 sequence (looked up): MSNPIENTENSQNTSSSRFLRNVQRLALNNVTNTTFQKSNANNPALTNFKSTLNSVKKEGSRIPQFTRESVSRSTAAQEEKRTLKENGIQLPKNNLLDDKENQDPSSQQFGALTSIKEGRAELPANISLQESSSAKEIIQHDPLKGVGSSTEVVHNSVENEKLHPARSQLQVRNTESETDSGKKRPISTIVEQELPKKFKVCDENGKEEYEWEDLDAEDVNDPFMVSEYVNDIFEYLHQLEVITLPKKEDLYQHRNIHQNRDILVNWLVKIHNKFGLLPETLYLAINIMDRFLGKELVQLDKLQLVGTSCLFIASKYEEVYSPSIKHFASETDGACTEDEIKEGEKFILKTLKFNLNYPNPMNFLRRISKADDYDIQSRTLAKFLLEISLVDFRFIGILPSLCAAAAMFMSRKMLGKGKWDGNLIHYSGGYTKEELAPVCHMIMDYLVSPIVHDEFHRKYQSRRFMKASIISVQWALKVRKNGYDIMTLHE
Test: purified proteins mixed; active cyclin-Cdk complex shown by Histone H1 kinase activity

Substance | binding
Cdc28-as1-His6 (from UniProt P00546 1-298) (enzyme) | binds
Cdc28-His6 (from UniProt P00546 1-298) (enzyme) | binds
